PubChem BioAssay AID686937 – Drosophila RNAi Screening Center – 2013
The deposit covers about 23,000 reagents; shown is an unselected part of those that have a named target and a result. 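Reduced-secretion tags in replicate 1 do not always agree with the z-scores; no criterion for assigning the tags was given.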 A plus sign joins genes that one reagent is predicted to hit. Not all columns of the deposit are shown. Not given: the amount of reagent.

- Screen: 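Knock-downs that reduce output of a secreted reporter enzyme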 (primary screen)
- Cells: Drosophila S2 cells expressing secreted horseradish peroxidase
- Reagent: long dsRNA against Drosophila genes
- Time to read-out: about 5.5 days (5 days dsRNA, then 12 h reporter induction)
- Challenge: reporter expression induced after 5 days of dsRNA, read 12 h later; inducer not stated
- Detection: 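After 5 days of dsRNA and 12 h of reporter induction, medium peroxidase read by chemiluminescence and scored as per-plate z-score; higher values mean more reporter released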
- Scale: z-score: higher = more reporter secreted into medium

The first 5 records, ahead of the listing:
gene knocked down	DRSC id	z-score, replicate 1	z-score, replicate 2	z-score, replicate 3
QC	DRSC09736	0.22	0.23	
Or33a	DRSC03386	0.6	0.5	
Rack1	DRSC03405	0.52	0.61	
Tep2	DRSC02679	0.64	0.33	
Tep2	DRSC03451	0.38	0.38	

Main list, repeating the preview:
gene knocked down	DRSC id	z-score, replicate 1	z-score, replicate 2	z-score, replicate 3
QC	DRSC09736	0.22	0.23	
Or33a	DRSC03386	0.6	0.5	
Rack1	DRSC03405	0.52	0.61	
Tep2	DRSC02679	0.64	0.33	
Tep2	DRSC03451	0.38	0.38	
H15	DRSC03339	0.08	0.37	
H15	DRSC22199	-0.92	-0.16	
Ent3	DRSC09822	0.3	0.23	
CCT6	DRSC20095	-5.84	-0.89	
SmydA-6	DRSC07341	0.26	0.26	
ATPsynCF6L	DRSC08232	0.27	0.45	
CG16903	DRSC18561	-2.34	-1.7	
CR11386 + CR33222	DRSC17781	0.08	-0.06	
jvl	DRSC13053	-2.95	-0.37	
jvl	DRSC15495	0.16	0.21	
CG6142	DRSC15976	0.52	0.43	
CG32259	DRSC08082	-0.36	0.25	
CG42233	DRSC14328	0.1	0.23	
CG42233	DRSC15416	0.32	0.44	
CR30374	DRSC05080	-0.42		
CG5122	DRSC02816	0.48	0.5	
CG8067	DRSC07065	0.19	0.27	
px	DRSC04708	-0.38	-0.84	
CG7560	DRSC10879	0.5	0.39	
TP53INP	DRSC08178	0.1	0.43	0.56
TP53INP	DRSC22552	1.31	0.76	
CAH1 + Adat1	DRSC02009	0.36	0.21	
CG4259	DRSC00645	0.15	0.16	
sba	DRSC13643	-1.88	-0.62	
sba	DRSC17050	0.48	0.44	0.37
Mur18B	DRSC20063	0.13	0.03	
COX6AL	DRSC21454	-0.36	0.11	
Gmap	DRSC19988	0.26	-0.28	
Gmap	DRSC20057	0.11	0.22	
CG1360	DRSC06406	0.27	0.4	
CG5116	DRSC15720	-0.69	0.02	
CG15404	DRSC00418	0.51	0.42	
CG7768	DRSC10914	0.3	0.28	
CG15337	DRSC18020	0.28	0.62	
CG15337	DRSC22778	-1.8	-0.52	
pod1	DRSC18362	0.54	0.41	
dpr15	DRSC12891	0.53	0.3	
dpr15	DRSC14187	0.36	-0.05	
dpr15	DRSC14188	0.22	0.23	
dnr1	DRSC03948	-2.18	0.33	
dnr1	DRSC04122	0.73	0.48	
CG9702	DRSC16540	0.24	0.45	
Miox	DRSC10747	0.47	0.4	
cyr	DRSC18017	0.23	0.63	
cyr	DRSC18018	0.28	0.73	
cyr	DRSC18021	0.34	0.65	
Amy-d + Amy-p	DRSC21242	0.56	0.3	
az2	DRSC07580	0.34	0.11	
org-1	DRSC18810	-2.05	-1.93	
ap	DRSC04917	0.48	0.48	
CG11828	DRSC14394	0.25	0.38	
CG11828	DRSC22580	0.18	-0.06	
